Laboratory results published in patent US20230139056A1, “METHODS, COMPOSITIONS AND REAGENTS FOR PREPARING COMPOUNDS” (Regents of the University of Minnesota, priority 2021, published 2023).
Some of these results come from one statement about several compounds together.

Protein sequences, listed by entry. Tags and fused reporters are not part of them. Lines headed by an entry give the natural chain unless they say otherwise; changes in a name come on top.
UniProt Q9RBY6: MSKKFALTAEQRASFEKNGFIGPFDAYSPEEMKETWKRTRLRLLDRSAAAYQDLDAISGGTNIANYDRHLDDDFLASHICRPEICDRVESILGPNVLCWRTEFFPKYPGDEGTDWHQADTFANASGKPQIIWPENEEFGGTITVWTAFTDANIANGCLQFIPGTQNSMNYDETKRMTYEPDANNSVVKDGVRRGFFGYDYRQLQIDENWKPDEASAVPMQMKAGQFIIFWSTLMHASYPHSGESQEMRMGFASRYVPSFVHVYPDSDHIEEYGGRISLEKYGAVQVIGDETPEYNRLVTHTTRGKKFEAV

Target: T1, SyrB2 (Pseudomonas syringae pv. syringae, UniProt Q9RBY6)
T1 construct: His-tag (inferred from the pET-28a(+) vector and Ni HisTrap purification); made in house; host or cells: E. coli BL21-Gold (DE3)
Assay: Chlorination reaction of Thr using SyrB2 with ligand activators (UPLC-MS/MS)
Type: biochemical
Details: SyrB2 50 μM, SyrB1-Ppt-Thr 50 μM, 50 mM NaCl, 500 μM 2OG or 2OG analog; determined by UPLC-MS/MS (FIG. 6)

SMILES | Thr chlorinated
O=C([O-])CCC(=O)C(=O)[O-].[Na+].[Na+] [Compound 20G, 2-oxoglutaric acid sodium salt] | > 85%
O=C(O)C(=O)/C=C/c1cccs1 [Compound 11] | > 85%
